{
  "sequences": {"note": "Sequences of proteins named here, by UniProt entry; tags and fusion partners are left off. Residues count along the entry.", "UniProt P08174, residues 35-353": "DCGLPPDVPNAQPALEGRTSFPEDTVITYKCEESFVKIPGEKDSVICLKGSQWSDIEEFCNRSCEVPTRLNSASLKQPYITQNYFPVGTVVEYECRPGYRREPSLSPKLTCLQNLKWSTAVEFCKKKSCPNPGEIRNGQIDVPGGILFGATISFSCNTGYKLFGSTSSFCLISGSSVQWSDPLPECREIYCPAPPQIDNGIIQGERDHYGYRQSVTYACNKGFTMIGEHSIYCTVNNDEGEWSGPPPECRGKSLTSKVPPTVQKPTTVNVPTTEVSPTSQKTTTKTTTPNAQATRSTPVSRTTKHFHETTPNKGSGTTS"},
  "source": "patent US20240141061A1",
  "about": "“NOVEL ANTIBODY AGAINST CD55 AND USE THEREOF” (SG MEDICAL INC, priority 2021, published 2024)",
  "note": "These are yes or no findings as the source states them, for the method shown. Some binding calls cover weakened binding; strength is not graded here.",
  "data": [
    {"molecular_target": "recombinant human CD55 (R&D Systems 2009-CD/CF) (human) (UniProt P08174)", "experiment": "indirect ELISA, recombinant human CD55 coated", "values": [
      {"binder": "10H(L) (antibody, V domains shown) VH: EVQLAESGGGLVQPGGSLRLSCAASGFTFSDRGMAWVRQAPGKGLEWVSGISSSGRYTYYAPAVKGRATISRDNSKNTLYLQMNSLRAEDTAVYYCAKNALAGGWHAAYIDAWGQGTTVTVSS VL: SYELTQPPSVSVSPGQTASITCSGGGGSYGWYQQKPGQSPVTVIYWNDKRPSGIPERFSGSKSGNTATLTISGTQAMDEADYYCGGWDSSTYAIFGGGTKLTVL", "binding": "binds"},
      {"binder": "10H(F) (antibody, V domains shown) VH: EVQLAESGGGLVQPGGSLRLSCAASGFTFSDRGMAWVRQAPGKGLEWVSGISSSGRYTYYAPAVKGRATISRDNSKNTLYLQMNSLRAEDTAVYYCAKNAFAGGWHAAYIDAWGQGTTVTVSS VL: SYELTQPPSVSVSPGQTASITCSGGGGSYGWYQQKPGQSPVTVIYWNDKRPSGIPERFSGSKSGNTATLTISGTQAMDEADYYCGGWDSSTYAIFGGGTKLTVL", "binding": "binds"},
      {"binder": "10H(M) (antibody, V domains shown) VH: EVQLAESGGGLVQPGGSLRLSCAASGFTFSDRGMAWVRQAPGKGLEWVSGISSSGRYTYYAPAVKGRATISRDNSKNTLYLQMNSLRAEDTAVYYCAKNAMAGGWHAAYIDAWGQGTTVTVSS VL: SYELTQPPSVSVSPGQTASITCSGGGGSYGWYQQKPGQSPVTVIYWNDKRPSGIPERFSGSKSGNTATLTISGTQAMDEADYYCGGWDSSTYAIFGGGTKLTVL", "binding": "binds"}
    ]}
  ]
}
